# Reference: the supplement of paper PMC11409438
# Where a name gives a salt, the structure may show the parent alone. This is one part of the list. Many values rest on one well or one pass, so single values are uncertain.
# How the values were obtained:
# [1] = tested on: Caenorhabditis elegans ST65 (ncIs13[ajm-1::GFP]); test: 'Larvae/adult' ratio (MetaXpress pharynx counts; minimum value 1, so it appears to include adults; growth inhibition read-out); conditions: 10 µM; exposure time: 4-5 days from L1 at 20°C
# [2] = tested on: Caenorhabditis elegans ST65 (ncIs13[ajm-1::GFP]); test: vulvae per adult worm (MAPK/ERK-dependent vulval induction, MetaXpress) (vulvae/adult); higher = more vulval induction (less MAPK/ERK inhibition); conditions: 10 µM; exposure time: 4-5 days from L1 at 20°C
SMILES,'Larvae/adult' ratio [1],vulvae per adult worm [2]
CC(C)C[C@H](NC(=O)[C@H](CCc1ccccc1)NC(=O)CN1CCOCC1)C(=O)N[C@@H](Cc1ccccc1)C(=O)N[C@@H](CC(C)C)C(=O)[C@@]1(C)CO1 [Carfilzomib (PR-171)],1.89,1
CS(=O)(=O)c1ccc(C(=O)Nc2ccc(Cl)c(-c3ccccn3)c2)c(Cl)c1 [Vismodegib (GDC-0449)],4.27,0.455
CNC(=O)[C@@H](NC(=O)[C@H](CC(C)C)[C@H](O)C(=O)NO)C(C)(C)C [Marimastat (BB-2516)],1.41,0.957
C[C@]1(c2nc3c(C(N)=O)cccc3[nH]2)CCCN1 [Veliparib (ABT-888)],3.23,1.14
Cc1ccc(C(=O)N(CCCN)[C@@H](c2oc3cc(Cl)ccc3c(=O)c2Cc2ccccc2)C(C)C)cc1,2.35,0.765
CC(=O)c1cc2c(o1)C(=O)c1ccccc1C2=O [Napabucasin],1.74,0.632
CS(=O)(=O)c1ccc(-c2cnc(N)c(C(=O)Nc3ccccc3)n2)cc1,2.37,0.788
CCN(CC)CCOc1ccc(C(=C(Cl)c2ccccc2)c2ccccc2)cc1 [Clomifene citrate],3.24,0.429
CC1(COc2ccc3c(c2)ncn3-c2ccc3cccc(N4CCC(N)CC4)c3n2)COC1,1.76,0.892
Cn1cc(-c2cnn3c(N)c(Br)c([C@@H]4CCCNC4)nc23)cn1,2.52,0.976
C1=N/C2=N/c3ccc(OCCN4CCCC4)c(c3)COC/C=C/COCc3cccc(c3)C(=C1)N2 [Pacritinib (SB1518)],4.12,0.588
NC(=O)Nc1cc(-c2cccc(F)c2)sc1C(=O)N[C@H]1CCCNC1,1.59,0.588
O=c1[nH]c(=O)n([C@H]2C[C@H](O)[C@@H](CO)O2)cc1F [Floxuridine],1.77,1.03
CN(C)C1CCN(C(=O)c2ccc(NC(=O)Nc3ccc(-c4nc(N5CCOCC5)nc(N5CCOCC5)n4)cc3)cc2)CC1,2,0.806
C=CC(=O)N1CC/C(=C\c2ccc(F)c([N+](=O)[O-])c2)C(=O)/C(=C/c2ccc(F)c([N+](=O)[O-])c2)C1,1.5,0.75
c1cn2cc(-c3ccc4cn[nH]c4c3)nc(Nc3ccc(N4CCOCC4)cc3)c2n1 [Entospletinib (GS-9973)],8.5,1

# Entries of single compounds from above.
# `CC(=O)c1cc2c(o1)C(=O)c1ccccc1C2=O` [Napabucasin] as listed: 'Larvae/adult' ratio [1]: 1.74; vulvae per adult worm [2]: 0.632
# `Cc1ccc(C(=O)N(CCCN)[C@@H](c2oc3cc(Cl)ccc3c(=O)c2Cc2ccccc2)C(C)C)cc1` as listed: 'Larvae/adult' ratio [1]: 2.35; vulvae per adult worm [2]: 0.765

# (listing goes on)

SMILES,'Larvae/adult' ratio [1],vulvae per adult worm [2]
O=c1[nH]c(C2CCCN2)nc2c1oc1ccc(Cl)cc12 (configuration not stated),1.98,0.867
"Cc1cc(Nc2ncnc3ccc(NC4=NC(C)(C)CO4)cc23)ccc1Oc1ccn2ncnc2c1 [Irbinitinib (ARRY-380, ONT-380)]",2.39,1.11
CN1CCN(c2nc(C3=C(c4c[nH]c5ccccc45)C(=O)NC3=O)c3ccccc3n2)CC1 [Sotrastaurin],2.02,0.943
COc1ccc(CCc2nc3cc(-c4c(C)noc4C)ccc3n2C[C@H](C)N2CCOCC2)cc1Cl,3.41,0.882
Cc1ccc(F)c(NC(=O)Nc2ccc(-c3cccc4[nH]nc(N)c34)cc2)c1 [Linifanib (ABT-869)],1.9,0.8
Cc1ncc(-c2ccnc(Nc3ccc(S(C)(=O)=O)cc3)n2)n1C(C)C,5.08,1.38
CCCCCOC(=O)Nc1nc(=O)n([C@@H]2O[C@H](C)[C@@H](O)[C@H]2O)cc1F [Capecitabine],1.73,1
COCCOc1cnc2ccn([C@H](C)c3nnc4c(F)cc(-c5cnn(C)c5)cn34)c(=O)c2c1,2.12,0.92
CC(C)Cn1cnc2c(N)nc3ccccc3c21 [Imiquimod],2.03,1.07
CN(C)C(=O)c1ccc(S(=O)(=O)c2ccc(NC(=O)[C@@](C)(O)C(F)(F)F)c(Cl)c2)cc1,2.56,1
O=C(c1ccc(C(=O)N2CCC(N3CCCC3)CC2)c(Nc2ccccc2)c1)N1CCC(N2CCCC2)CC1,2.62,1.33
CN(C)C/C=C/C(=O)Nc1cc2c(Nc3ccc(F)c(Cl)c3)ncnc2cc1O[C@H]1CCOC1 [Afatinib (BIBW2992)],1.68,0.892
CCc1cncnc1N1CCN(Cc2nc3ccc(C(F)(F)F)cc3[nH]2)CC1,4.17,0.167
Cc1ccc(-c2cc(C(F)(F)F)nn2-c2ccc(S(N)(=O)=O)cc2)cc1 [Celecoxib],2.23,0.692
CC[C@@H]1C(=O)N(C)c2cnc(Nc3ccc(C(=O)NC4CCN(C)CC4)cc3OC)nc2N1C1CCCC1,2.55,1
